Assay results reported in paper PMC7819943, “Rice protein-binding microarrays: a tool to detect cis-acting elements near promoter regions in rice”.
This is one part of the list.

The chains behind the UniProt entries cited, without tags or fusion partners.
UniProt Q0JBA9, entry or part of it: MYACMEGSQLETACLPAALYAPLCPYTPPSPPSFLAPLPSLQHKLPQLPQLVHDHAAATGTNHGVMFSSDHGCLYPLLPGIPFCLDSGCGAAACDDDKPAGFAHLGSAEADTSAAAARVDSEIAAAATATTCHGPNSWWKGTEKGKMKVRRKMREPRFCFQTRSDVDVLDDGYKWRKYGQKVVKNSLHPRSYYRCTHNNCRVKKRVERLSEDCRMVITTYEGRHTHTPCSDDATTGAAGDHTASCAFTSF

Target: OsWRKY34 (Oryza sativa, UniProt Q0JBA9 1-250)
Assay: protein-binding microarray (RPBM); PBS, 2% BSA, 51.3 ng/ul salmon testes DNA, 50 uM zinc acetate, 200 nM TF, 25 C, 1 h; high values mean tight binding
Conditions: protein: recombinant; tags: N-terminal polyhistidine and DsRed monomer fusion (pET32a); label: CyDye5-dUTP incorporated in the synthesized complementary strand; 3' TTTTT single-stranded linker to array surface; dsDNA, one strand shown
Procedure, shortened: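 Transcription factors were made in E. coli BL21-CodonPlus as N-terminal fusions to a polyhistidine tag and DsRed, then purified on Ni–NTA. After primer extension with Cy5-dUTP and blocking with 2% BSA, a custom Agilent array was exposed for 1 h at 25 °C to 200 nM protein in PBS, 2% BSA, salmon testes DNA and 50 µM zinc acetate. Washed arrays were scanned on an Axon 4000B, and the binding signal is per-feature fluorescence intensity in arbitrary units.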

Compared with “CGTTCTCTTTATTCCTCCCTCTCCTGCTTGTCTCGTTGCGCGGAGTCACCTAGTGCAG”, “GAAGGACTTCCATTTGACTTCCATGGTGGATTTGTTGGATCGGAGTCACCTAGTGCAG” is higher in binding signal: 8070 fluorescence intensity (a.u.) for the first, 9280 fluorescence intensity (a.u.) for the second.

First: CTGATTTCCACTCTGAATTGACCTGGTCACCCTGCGATCTCGGAGTCACCTAGTGCAG
Second: CACTCGAACCCGACCCGCCTCGCCGCCGCCGCCACCGAAGCGGAGTCACCTAGTGCAG
The binding signal of the first is lower: 8160 fluorescence intensity (a.u.) for the first, 8820 fluorescence intensity (a.u.) for the second.

Compared with “TGTTGTTTAGTAATCCTAGTTTGCTTCGGTTCTGTTCCCACGGAGTCACCTAGTGCAG”, “TTTTTACCTTTATTACTTACATGTGGGAGCCACTTCTATTCGGAGTCACCTAGTGCAG” is lower in binding signal: 9850 fluorescence intensity (a.u.) for the first, 8880 fluorescence intensity (a.u.) for the second.

Compared with “TGCTAATGTTGATTACATTCACCACTATCACTGGATCAAACGGAGTCACCTAGTGCAG”, “CTCAATTCCTCATCCTCATCCCACAAAAATTCCCATGTCTCGGAGTCACCTAGTGCAG” is lower in binding signal: 9430 fluorescence intensity (a.u.) for the first, 8600 fluorescence intensity (a.u.) for the second.

First: TCCTCAACTGAGTACACTTCGCCACTTTACCATTTTCATCCGGAGTCACCTAGTGCAG
Second: AAATATCAACCACATGCTCCTACTTCTATGGAAATTGATTCGGAGTCACCTAGTGCAG
The binding signal of the first is higher: 11300 fluorescence intensity (a.u.) for the first, 10400 fluorescence intensity (a.u.) for the second.

Compared with “AAATCGTATATTAGTTTTACCGTGGGCCGTAGAAGCTTGACGGAGTCACCTAGTGCAG”, “ACTAGTATGTACCACATCATGTACTTAGGTTTCTTTTTTACGGAGTCACCTAGTGCAG” is higher in binding signal: 8040 fluorescence intensity (a.u.) for the first, 10600 fluorescence intensity (a.u.) for the second.

First: ACCTGTTTTTCATGCGTTTTTTATGAGTGATTTTTTTTAACGGAGTCACCTAGTGCAG
Second: CTTTTCGTTTGCAAATACTCCCGATGTTACTAGATTTATCCGGAGTCACCTAGTGCAG
The binding signal of the first is higher: 11200 fluorescence intensity (a.u.) for the first, 11000 fluorescence intensity (a.u.) for the second.

Compared with “CAATCTCGAGATTCTCCGCTGCTATTATCCCCGATCCAAACGGAGTCACCTAGTGCAG”, “TTTGTCCTGCCAAAAAATGCATTTTTTCTTTTTTTTTTTCCGGAGTCACCTAGTGCAG” is higher in binding signal: 8140 fluorescence intensity (a.u.) for the first, 9540 fluorescence intensity (a.u.) for the second.

Compared with “CTCCATGGCCTCAACAAGCTCACAAGCTTCTGCAACCCTGCGGAGTCACCTAGTGCAG”, “GCTCGTTGTCATCACCTGCTCCAAGCCACGGGGCCTCCTCCGGAGTCACCTAGTGCAG” is lower in binding signal: 8470 fluorescence intensity (a.u.) for the first, 8410 fluorescence intensity (a.u.) for the second.

First: ATAAGATGAATGGTCAAATGTTAGACAAAAAGTCAACGGCCGGAGTCACCTAGTGCAG
Second: GGACGAACTCGGGTATAGGGCTGGGCGGATTGGGCGTGGGCGGAGTCACCTAGTGCAG
The binding signal of the first is higher: 12500 fluorescence intensity (a.u.) for the first, 11000 fluorescence intensity (a.u.) for the second.

Compared with “CTTTACTACTTCACATCTGATGGCTGGTGTTGAATTCATTCGGAGTCACCTAGTGCAG”, “GTCTGCTACCGTACCTGCTCTAGATCTAGTTCTATTTCTCCGGAGTCACCTAGTGCAG” is lower in binding signal: 10400 fluorescence intensity (a.u.) for the first, 9840 fluorescence intensity (a.u.) for the second.

Compared with “CGCCACCACGTCGCGCACCTTCTCATTGGCCGGAACAAGTCGGAGTCACCTAGTGCAG”, “GCCCATCGTGCCGAGCTATCCTTCCACATACAGTGCTGGACGGAGTCACCTAGTGCAG” is lower in binding signal: 10700 fluorescence intensity (a.u.) for the first, 8260 fluorescence intensity (a.u.) for the second.

Compared with “GGCGCAGTTCTTGCTTCACCTGCTTGTTTGTTTGCTTCGCCGGAGTCACCTAGTGCAG”, “TTTCACGTTTCGGCGCCATTTCGCCTTCTTCTTCACCTGGCGGAGTCACCTAGTGCAG” is lower in binding signal: 13500 fluorescence intensity (a.u.) for the first, 8450 fluorescence intensity (a.u.) for the second.

First: AATTTTTTCCCACCACCTCCTTTCAAATTTTTTTATCTCCCGGAGTCACCTAGTGCAG
Second: CTGGTTGTGTGTTGGAGAATTTAAGCTCCTATGTGGAAAACGGAGTCACCTAGTGCAG
The binding signal of the first is lower: 9230 fluorescence intensity (a.u.) for the first, 9670 fluorescence intensity (a.u.) for the second.

Compared with “TCGTTCGTTGGTTTGTTTTTTTTTTCTTTTCTCGCGTACACGGAGTCACCTAGTGCAG”, “ACCACCAGCTTTGCTCCCGCTAGTTCCCGCTGATCGATCTCGGAGTCACCTAGTGCAG” is lower in binding signal: 11600 fluorescence intensity (a.u.) for the first, 9180 fluorescence intensity (a.u.) for the second.

Compared with “GTATTTCTCTTCGATACGGATATACACTACCGCCACCGTTCGGAGTCACCTAGTGCAG”, “AAAATTTTTACTACCACCTCTACATCCCGCAAGCATCTCCCGGAGTCACCTAGTGCAG” is higher in binding signal: 8380 fluorescence intensity (a.u.) for the first, 8550 fluorescence intensity (a.u.) for the second.

First: TATAATATTATCAAACCAGGACTCCATGCCGTTCCATAATCGGAGTCACCTAGTGCAG
Second: TCCATCAGGTTGCAGTTGGTTCCATGTACAATCTTTCTTTCGGAGTCACCTAGTGCAG
The binding signal of the first is higher: 8200 fluorescence intensity (a.u.) for the first, 8060 fluorescence intensity (a.u.) for the second.

Compared with “ATGACTTACCTTCTACATGTTGACTTTCAGGAGTGACTGTCGGAGTCACCTAGTGCAG”, “CTCCGCCTGCCTGCTCTAGCCGCTTGCCGCACCACGCTCTCGGAGTCACCTAGTGCAG” is higher in binding signal: 8650 fluorescence intensity (a.u.) for the first, 9670 fluorescence intensity (a.u.) for the second.

First: ATTTTGCAAATCTCTCATTTATATATATCCATATACATATCGGAGTCACCTAGTGCAG
Second: CCAATTTAATTTCTATGGCTTGATTTCCTCTTTGGCACAACGGAGTCACCTAGTGCAG
The binding signal of the first is higher: 9090 fluorescence intensity (a.u.) for the first, 8050 fluorescence intensity (a.u.) for the second.

First: TATGGGCGCGGTTTCGATTCCTCACAATGGCTGCCTTTGTCGGAGTCACCTAGTGCAG
Second: GACTCTGTGCGCTCCATGTCATCCATCGTGCGGCCCACGTCGGAGTCACCTAGTGCAG
The binding signal of the first is higher: 9510 fluorescence intensity (a.u.) for the first, 9310 fluorescence intensity (a.u.) for the second.

First: GCTGATGCTCTGTTTGTATTTTTTTTCCATTTTAGTACGTCGGAGTCACCTAGTGCAG
Second: ACGAAGACTAAGTCAACAAACCATATAGGCACCACGTTAACGGAGTCACCTAGTGCAG
The binding signal of the first is higher: 11200 fluorescence intensity (a.u.) for the first, 8780 fluorescence intensity (a.u.) for the second.
